Source: PubChem BioAssay AID1224826 (NIAID, 2016)

- Purpose: 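Genes that change LPS-induced Tnf promoter activity in mouse macrophages when knocked down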 (primary screen)
- System: RAW264.7 G9 macrophages from mouse bearing reporters for p65 (GFP) and the Tnf promoter (mCherry)
- Reagents: siRNA pool against mouse genes, 100 nM
- Timing: 16 h of LPS stimulation, after 2 days of siRNA transfection
- Challenge: bacterial lipopolysaccharide (Salmonella minnesota R595), 10 ng/ml
- Read-out: 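Nuclear mCherry signal of the Tnf promoter reporter measured by imaging after background removal, scaled to each plate median and turned into robust z-scores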
- Reading the numbers: Tnf reporter robust z-score: higher = stronger Tnf promoter reporter signal after LPS
- Active means: 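a well counts as active at a score of -1.3 or below (Tlr4 knock-down control median) or above 3 (raised signal); controls and wells holding fewer than 50 cells are excluded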
- Meaning of the calls: active = Tnf reporter clearly lowered or raised; inactive = no clear change in Tnf reporter
In all, the deposit lists about 17,000 reagents; this is an unselected part. Over the whole deposit, about 1,110 (6.6%) got an active call. 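Active means lowered or raised reporter signal; replicate intensities are raw and not normalised per plate.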 The numbers tell different reagents against one gene apart. Further read-outs or replicates are left out here.

The opening 7 records, to show the layout:
| Gene | pool no. | Tnf reporter robust z-score | fewer than 50 cells in well | activity call |
| --- | --- | --- | --- | --- |
| Samd4b | 1 | -0.33 | enough cells in well | inactive |
| H2-T23 | 1 | 0.63 | enough cells in well | inactive |
| Tmcc1 | 1 | -0.76 | enough cells in well | inactive |
| Fbxo17 | 1 | -0.37 | enough cells in well | inactive |
| Itga8 | 1 | -0.11 | enough cells in well | inactive |
| Nbn | 1 | -1.11 | enough cells in well | inactive |
| C8b | 1 | -0.7 | enough cells in well | inactive |

The list itself, repeating the preview:
| Gene | pool no. | Tnf reporter robust z-score | fewer than 50 cells in well | activity call |
| --- | --- | --- | --- | --- |
| Samd4b | 1 | -0.33 | enough cells in well | inactive |
| H2-T23 | 1 | 0.63 | enough cells in well | inactive |
| Tmcc1 | 1 | -0.76 | enough cells in well | inactive |
| Fbxo17 | 1 | -0.37 | enough cells in well | inactive |
| Itga8 | 1 | -0.11 | enough cells in well | inactive |
| Nbn | 1 | -1.11 | enough cells in well | inactive |
| C8b | 1 | -0.7 | enough cells in well | inactive |
| Npy2r | 1 | 0.72 | enough cells in well | inactive |
| Defb21 | 1 | – | fewer than 50 cells per well; well left out of calls | inactive |
| Osr1 | 1 | -0.83 | enough cells in well | inactive |
| Ranbp3l | 1 | 1.04 | enough cells in well | inactive |
| Slc71a2 | 1 | 0.57 | enough cells in well | inactive |
| Pdk4 | 1 | -0.34 | enough cells in well | inactive |
| Ormdl3 | 1 | 0.7 | enough cells in well | inactive |
| Csnk1g3 | 1 | -0.36 | enough cells in well | inactive |
| Csnk1g3 | 2 | -0.34 | enough cells in well | inactive |
| Agtr1b | 1 | 0.23 | enough cells in well | inactive |
| Zfp235 | 1 | – | fewer than 50 cells per well; well left out of calls | inactive |
| Creb3l4 | 1 | 2.64 | enough cells in well | inactive |
| Xpr1 | 1 | -0.27 | enough cells in well | inactive |
| Ints3 | 1 | 2.36 | enough cells in well | inactive |
| Or4d6 | 1 | 0.07 | enough cells in well | inactive |
| Abo | 1 | 0.18 | enough cells in well | inactive |
| Tpbpb | 1 | – | fewer than 50 cells per well; well left out of calls | inactive |
| Raet1e | 1 | 2.57 | enough cells in well | inactive |
| Pnp | 1 | -0.75 | enough cells in well | inactive |
| Dusp23 | 1 | -1.51 | enough cells in well | active |
| Chmp1b2 | 1 | – | fewer than 50 cells per well; well left out of calls | inactive |
| Smim12 | 1 | -0.7 | enough cells in well | inactive |
| Dmrt1 | 1 | 0.4 | enough cells in well | inactive |
| Nxnl1 | 1 | -1.17 | enough cells in well | inactive |
| Hipk1 | 1 | -0.42 | enough cells in well | inactive |
| Lgr4 | 1 | 0.41 | enough cells in well | inactive |
| Or8d23 | 1 | 1.39 | enough cells in well | inactive |
| Tril | 1 | -1.37 | enough cells in well | active |
| Stard10 | 1 | 3.19 | enough cells in well | active |
| 2410004B18Rik | 1 | – | fewer than 50 cells per well; well left out of calls | inactive |
| Muc5b | 1 | 0.37 | enough cells in well | inactive |
| Smpd2 | 1 | – | fewer than 50 cells per well; well left out of calls | inactive |
| Defb13 | 1 | -1.45 | enough cells in well | active |
| Tax1bp3 | 1 | 0.83 | enough cells in well | inactive |
| Mst1r | 1 | – | fewer than 50 cells per well; well left out of calls | inactive |
| Ccdc51 | 1 | -0.55 | enough cells in well | inactive |
| Nanos1 | 1 | -1.03 | enough cells in well | inactive |
| Atat1 | 1 | – | fewer than 50 cells per well; well left out of calls | inactive |
| Unc5cl | 1 | – | fewer than 50 cells per well; well left out of calls | inactive |
| Kcnj12 | 1 | -0.12 | enough cells in well | inactive |
| Psd3 | 1 | -0.97 | enough cells in well | inactive |
| Psd3 | 2 | 0.47 | enough cells in well | inactive |
| Uba6 | 1 | 0.47 | enough cells in well | inactive |
| Trpc1 | 1 | -0.19 | enough cells in well | inactive |
| Pdgfrl | 1 | -0.8 | enough cells in well | inactive |
| Mprip | 1 | -0.95 | enough cells in well | inactive |
| Iqcb1 | 1 | 0.01 | enough cells in well | inactive |
| Stam | 1 | 0.07 | enough cells in well | inactive |
| Poll | 1 | 0.42 | enough cells in well | inactive |
| Atoh7 | 1 | 1.89 | enough cells in well | inactive |
| H2al1m | 1 | – | fewer than 50 cells per well; well left out of calls | inactive |
